Measured values reported in PubChem BioAssay AID602188 (Broad Institute, 2012).
Inconclusive means that the source gave no clear call. Such entries were picked first, then a sample of the others. Active and inactive are the calls of the source.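 Rule for the calls: active = compounds whose fitted curve lowers viable cell signal, with half-maximal concentration at most twice the top tested dose; inconclusive = flat curve showing 30 to 70% toxicity, or poor fit; inactive = the rest.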

assay: mammalian cell viability loss – Alamar Blue, dry powder, cytotoxicity control for antifungal single agent project, dose response (AID 602188); conditions: NIH-3T3 fibroblast viability, Alamar Blue fluorescence, 48 h; at 26 µM (top of the series)

Structure (SMILES)	activity change, negative = toxicity
O=C(Nc1nc(-c2ccccc2)cs1)c1ccc(Br)s1	inactive: -12.8%
C=CCNC(=S)N/N=C(\C)c1ccccn1	inconclusive: -87.3%
CCOC(=O)N1C(=O)C2(CCCCC2)N(c2ccc(C)cc2)C1=S	inactive: -30.9%
